# Screening data, single-dose tests

Sequences of proteins named here, by UniProt entry; tags and fusion partners are left off.
UniProt I6X8D2, whole entry: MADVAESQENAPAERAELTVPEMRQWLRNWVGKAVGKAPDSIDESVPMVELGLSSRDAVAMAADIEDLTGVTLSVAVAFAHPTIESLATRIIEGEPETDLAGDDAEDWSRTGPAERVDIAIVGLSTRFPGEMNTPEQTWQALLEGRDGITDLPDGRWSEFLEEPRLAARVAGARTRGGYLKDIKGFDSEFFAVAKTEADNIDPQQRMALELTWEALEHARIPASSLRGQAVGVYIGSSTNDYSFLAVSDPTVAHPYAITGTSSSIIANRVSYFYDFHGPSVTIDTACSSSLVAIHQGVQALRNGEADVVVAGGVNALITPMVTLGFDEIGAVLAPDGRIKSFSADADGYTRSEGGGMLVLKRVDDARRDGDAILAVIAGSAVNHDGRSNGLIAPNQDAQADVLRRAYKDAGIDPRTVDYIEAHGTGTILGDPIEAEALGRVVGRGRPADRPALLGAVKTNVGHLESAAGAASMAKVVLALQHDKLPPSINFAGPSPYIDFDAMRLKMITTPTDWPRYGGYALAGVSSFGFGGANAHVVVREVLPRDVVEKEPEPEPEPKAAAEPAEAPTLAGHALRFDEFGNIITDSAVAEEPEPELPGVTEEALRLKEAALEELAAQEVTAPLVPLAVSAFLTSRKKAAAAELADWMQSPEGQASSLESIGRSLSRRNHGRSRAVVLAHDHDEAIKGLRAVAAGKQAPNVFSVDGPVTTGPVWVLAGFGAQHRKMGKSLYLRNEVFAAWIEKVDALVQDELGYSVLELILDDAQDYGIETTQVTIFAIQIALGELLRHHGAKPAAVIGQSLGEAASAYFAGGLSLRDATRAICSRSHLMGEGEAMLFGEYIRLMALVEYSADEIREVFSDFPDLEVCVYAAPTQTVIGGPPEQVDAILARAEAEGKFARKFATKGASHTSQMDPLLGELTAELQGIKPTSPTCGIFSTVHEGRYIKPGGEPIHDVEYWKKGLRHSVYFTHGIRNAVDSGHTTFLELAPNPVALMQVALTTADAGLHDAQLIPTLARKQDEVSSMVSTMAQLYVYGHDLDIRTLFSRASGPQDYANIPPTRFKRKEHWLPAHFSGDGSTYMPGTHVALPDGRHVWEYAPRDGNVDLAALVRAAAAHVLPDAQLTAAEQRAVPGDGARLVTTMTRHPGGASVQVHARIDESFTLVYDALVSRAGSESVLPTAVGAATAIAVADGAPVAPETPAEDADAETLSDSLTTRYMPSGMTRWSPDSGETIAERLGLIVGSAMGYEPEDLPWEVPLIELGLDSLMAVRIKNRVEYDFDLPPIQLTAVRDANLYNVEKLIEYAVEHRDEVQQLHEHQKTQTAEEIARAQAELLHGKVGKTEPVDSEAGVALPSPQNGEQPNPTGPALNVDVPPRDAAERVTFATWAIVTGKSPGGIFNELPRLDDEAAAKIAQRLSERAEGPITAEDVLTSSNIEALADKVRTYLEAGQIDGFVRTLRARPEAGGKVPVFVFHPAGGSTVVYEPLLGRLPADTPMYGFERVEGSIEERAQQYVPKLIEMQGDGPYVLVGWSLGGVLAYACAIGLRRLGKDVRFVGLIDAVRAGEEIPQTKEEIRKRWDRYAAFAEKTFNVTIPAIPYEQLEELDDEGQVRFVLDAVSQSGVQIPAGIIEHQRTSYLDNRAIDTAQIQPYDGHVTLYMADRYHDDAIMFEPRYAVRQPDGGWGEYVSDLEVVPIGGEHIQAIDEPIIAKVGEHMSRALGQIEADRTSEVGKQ
UniProt P9WNZ1, whole entry: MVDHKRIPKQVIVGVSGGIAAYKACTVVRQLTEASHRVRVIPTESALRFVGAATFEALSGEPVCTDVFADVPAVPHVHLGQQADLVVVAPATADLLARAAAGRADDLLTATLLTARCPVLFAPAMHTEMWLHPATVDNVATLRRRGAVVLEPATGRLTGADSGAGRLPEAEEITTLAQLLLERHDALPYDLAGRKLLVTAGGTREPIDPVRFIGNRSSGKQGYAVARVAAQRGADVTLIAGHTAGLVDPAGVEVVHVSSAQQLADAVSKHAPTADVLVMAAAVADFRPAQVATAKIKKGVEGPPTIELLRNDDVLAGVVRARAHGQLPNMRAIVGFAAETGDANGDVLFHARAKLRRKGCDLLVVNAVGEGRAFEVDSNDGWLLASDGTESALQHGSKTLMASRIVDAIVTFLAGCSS
UniProt P9WPC5, whole entry: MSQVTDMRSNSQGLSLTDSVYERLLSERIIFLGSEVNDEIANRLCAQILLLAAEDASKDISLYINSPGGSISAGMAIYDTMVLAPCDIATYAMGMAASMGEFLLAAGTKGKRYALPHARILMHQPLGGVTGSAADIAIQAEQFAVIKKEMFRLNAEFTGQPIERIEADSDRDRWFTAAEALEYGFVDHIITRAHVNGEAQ
UniProt P9WPC3, whole entry partner: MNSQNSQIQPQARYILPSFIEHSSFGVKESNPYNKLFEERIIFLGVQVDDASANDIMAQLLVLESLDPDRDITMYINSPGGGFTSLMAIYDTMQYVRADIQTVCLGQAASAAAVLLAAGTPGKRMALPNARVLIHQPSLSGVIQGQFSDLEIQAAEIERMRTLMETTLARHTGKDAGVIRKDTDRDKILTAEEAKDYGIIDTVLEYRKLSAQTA
UniProt P9WFT3, whole entry: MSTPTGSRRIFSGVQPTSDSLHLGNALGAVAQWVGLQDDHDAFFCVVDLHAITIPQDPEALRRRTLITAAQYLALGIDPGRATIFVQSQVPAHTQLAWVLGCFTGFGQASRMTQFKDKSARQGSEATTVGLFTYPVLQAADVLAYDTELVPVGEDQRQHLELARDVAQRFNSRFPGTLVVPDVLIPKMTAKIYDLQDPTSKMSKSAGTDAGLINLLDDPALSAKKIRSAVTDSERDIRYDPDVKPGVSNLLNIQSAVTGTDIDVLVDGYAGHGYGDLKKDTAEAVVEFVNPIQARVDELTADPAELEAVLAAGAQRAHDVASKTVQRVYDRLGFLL

Measurements from “University of Dundee, Small-Polar-MMV Screening Library” (2021), ChEMBL document CHEMBL3988442.

Pks13 thioesterase: 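Enzyme assay of the thioesterase domain of polyketide synthase 13; the read-out is not stated. Target: Polyketide synthase Pks13, Mycobacterium tuberculosis (UniProt I6X8D2). Tested at 30 µM. The record gives no direction; the compounds picked for IC50 retests had high values, so higher reads as stronger inhibition. Of about 67,000 compounds tested this way, about 300 (0.46%) reached 50% or more in at least one test.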
Toxoplasma: 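Assay of Toxoplasma gondii numbers, read through their beta-galactosidase reporter with a colour substrate. Compounds at 10 µM. Higher reads as fewer parasites (inferred from which compounds were picked for retests). Of about 67,000 compounds tested this way, about 260 (0.38%) reached 50% or more in at least one test.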
CoaBC: 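Enzyme assay of CoaBC with a phosphate dye (Biomol Green) read at 650 nm. Target: Coenzyme A biosynthesis protein CoaBC, Mycobacterium tuberculosis (UniProt P9WNZ1). Tested at 30 µM. Direction is inferred from only a few compounds that gave an IC50; most scored high, so higher reads as stronger inhibition. Most strong results did not repeat in a second test. Of about 67,000 compounds tested this way, about 40 (0.06%) reached 50% or more in at least one test.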
ClpP1P2: 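Protease assay of ClpP1P2, read by the AMC dye that it sets free. Target: ClpP1P2, Mycobacterium tuberculosis (UniProt P9WPC5 and UniProt P9WPC3). Compounds at 50 µM. Direction is inferred from only a few compounds that gave an IC50; most scored high, so higher reads as stronger inhibition. Most other retested compounds had strongly negative values. Of about 69,000 compounds tested this way, about 10 (0.015%) reached 50% or more in at least one test.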
Leishmania in macrophages: 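Cell assay of Leishmania donovani living inside macrophages; the read-out is not stated. Tested at 30 µM. Higher reads as stronger inhibition (inferred: compounds with an IC50 in retests scored well above the rest). Size under these conditions: about 69,000 compounds, about 1,000 of them at 50% or above in at least one test.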
MtTrpRS: 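Tryptophan-tRNA ligase, Mycobacterium tuberculosis (UniProt P9WFT3). Enzyme assay of tryptophanyl-tRNA synthetase; the read-out is not stated. Concentration: 10 µM. Higher most likely means stronger inhibition; the record gives no direction and few retests gave an IC50. Of about 65,000 compounds tested this way, about 64 (0.098%) reached 50% or more in at least one test.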

Values are the deposited “Percent Effect”, in %. The controls that fix the scale are not given in the record; negative values are as filed. Compounds were drawn at random from those tested, without regard to their results. Two or more numbers in one place are separate tests of the same structure; such repeats can differ widely. A dash means the value is not listed here; it may have been measured.

Compound	Pks13 thioesterase	Toxoplasma	CoaBC	ClpP1P2	Leishmania in macrophages	MtTrpRS
O=C(O)C(F)(F)F.[H][C@@]12CN(C(=O)CCOC)C[C@]1([H])C(=O)N(Cc1cccc(C)n1)C2	-	4.752	-	-	24.18	-
O=C1CC(c2ccc(C(=O)O)cc2)c2c(sc3c2CCCC3)N1 (centres unmarked)	-2.138	6.46	33.33 and -5.67	4.704	-8.136	1.876
Oc1nc(N2CCOCC2)nc2c1CCN(Cc1ccccc1)CC2	8.019	0.4924	2.663	6.121	1.739 and 18.07	-
CN(C)C(=O)CN1CCC2(CCN(CC3CC3)CC2)C1=O.O=C(O)C(F)(F)F	-	19.27	-	-	-11.76	-
[H][C@@]12CCN(Cc3nc(C)cs3)C[C@@]1([H])O[C@H](c1nnc(C)[nH]1)C2	-	8.876	-	-	14.2	-
Cc1cc(C)c(OCC(=O)NS(=O)(=O)c2c(C)noc2C)c(C)c1	-9.282	34.06	1.554	-6.16	-5.716	0.9651
CCn1cnnc1CNC(=O)N1CCN(C(C)C)CC1	-23.8	8.622	-1.567	-37.33	-19.1	19.81
COCc1cccc(C(=O)N2CCN(C3=NCC(C)(C)S3)CC2)c1	3.295	1.23	0.5894	-0.9887	8.903	4.876
Cn1ccnc1CN1CCC2(CC1)COCCN(S(C)(=O)=O)C2.O=C(O)C(F)(F)F	-	1.77	-	-	39.8	-
[H][C@@]12C[C@H](C(=O)N(C)C)[C@@]([H])(CN(S(=O)(=O)c3ccccc3)C1)O2	-	-16.5	-	-	40.68	-
CCCN1CCC(N2CCN(c3cc(C)nc(C)c3)CC2)CC1	-2.058	-3.661	1.38	-20.12	23.74	1.814
CCCN(CCC)S(=O)(=O)c1cc(NC(C)=O)ccc1C	-8.013	-7.505	10.26	-8.099	1.019	0.07137
O=C(O)C(F)(F)F.[H][C@@]12CCN(CC(=O)NC)C[C@]1([H])CN(C(=O)c1ccccc1F)C2	-	15.3	-	-	2.563	-
CCOC(=O)c1sc2ccsc2c1CN	-14.57	-	-10.12	-4.633	-	-3.596
CN1CCC(N(C)C[C@H]2CC[C@@H](Cc3cccc(O)c3)O2)CC1	-9.252	5.865	-31.33	10.79	81.26	10.1
Nc1ncccc1CN1C[C@@H]2CC[C@H](C1)N(CC1CC1)C2=O	-13.03	-	0.8444	3.507	-	-1.667
Cc1ccnc(OC[C@@]23CCO[C@@H]2CCN(C2CCC2)C3)n1	19.59	-	-10.39	8.219	-	12.44
CCc1nc(C2NC3(CCCC3)C(=O)N2CC2CC2)cs1 (centres unmarked)	-9.431	13.25	-2.641	-10.04	-43.38	4.158
CN(Cc1ccc(-n2cccn2)cc1)Cc1ncc[nH]1	-29.31	-0.634	7.613	-2.593	29.92	-3.722
CC(C)NC(=O)[C@H]1C[C@@H]2[C@@H](C1)OCCN2Cc1nccs1	-25.72	-	4.194	-14.38	-	-1.208
O=C(NCc1ccnc(OCC2CC2)c1)C1COc2ccccc2O1 (centres unmarked)	-6.738	5.393	2.675	0.09414	13.04	-0.9202
CC(c1nc(C(C)(C)C)no1)N1CCN(CC(=O)N2CCOCC2)CC1 (centres unmarked)	-27.08	-3.57	5.533	3.262	10.4	-1.377
C=Cc1ccc(C(=O)N2CCCC(Nc3ccc(OC)cc3)C2)cc1 (centres unmarked)	-11.75	-3.924	5.757	-11.04	-4.007	-2.554
CN1CCC(CNC(=O)c2cccc(NC(N)=O)c2)c2ccccc21 (centres unmarked)	-35.71	12.56	-11.35	7.963	29.7	-2.169
O=C(Nc1ccccc1Cn1cncn1)C1CCN(C2CCCCC2)C1 (centres unmarked)	-49.56	3.916	-	4.784	-4.453	-1.342
Cc1noc([C@@H]2C[C@H]3OCC[C@H]3N(S(=O)(=O)c3cccnc3)C2)n1	56.26	-	15.27	-2.285	-	4.852
COCc1nc(CN2CC(Cc3ccccc3)CC2=O)no1 (centres unmarked)	-2.843	-27.76	1.392	0.4415	10.27	4.759
CSCc1noc(CN2CC(Cc3ccccc3)CC2=O)n1 (centres unmarked)	4.257	-5.269	-0.3797	4.599	3.013	-3.535
CC(=O)N(C)c1nc(CN2CCCC2Cn2cncn2)cs1 (centres unmarked)	-7.764	9.144	6.323	-6.498	19.18	1.071
O=C(O)C(F)(F)F.[H][C@@]12CCCO[C@]1([H])[C@@H](OC)CN2CC1CC1	-	-8.046	-	-	11.38	-
Cc1ncsc1C(=O)NCc1ccnc(OCC(F)(F)F)c1	-1.636	-6.597	5.957	-18.64	34.79	-4.583
CC(C)N1CCC(c2cnc(-c3cncnc3)cn2)CC1	-24.77	2.648	-0.7398	-0.8352	-5.721	11.08
Cc1ccc(CN2CCn3c(CN(C)C(C)C)cnc3C2)s1.O=C(O)C(F)(F)F.O=C(O)C(F)(F)F	-	15.9	-	-	8.614	-
Cc1nc(C2CCCN2C(=O)COCCOc2ccccc2)no1 (centres unmarked)	4.788	0.6233	0.8264	-8.165	13.02	20.07
O=S(=O)(C1CC1)N1CCc2ncnc(-c3ccncc3)c2CC1	-30.95	-	-6.25	0.8627	-	1.481
CCS(=O)(=O)N1CCN(C(C)(C)CO)CC1	-8.897	-50.16	4.027	-11.78	12.96	2.529
CC(C)(C)c1ccc(C(=O)NCCCNC(=O)c2cnccn2)cc1	2.341	-3.453	17.19	-3.012	11.22	-1.632
Cc1ccc(N2CCc3ncnc(C)c3CC2)nn1	-44.18	6.461	-1.98	1.289	12.33	-
CC1CCN(C(=O)[C@H]2CC[C@@H]3[C@@H](CCN3Cc3nccs3)O2)CC1	-33.09	-	2.353	0.349	-	10.45

Some entries from above, unchanged:

- Cc1ccc(N2CCc3ncnc(C)c3CC2)nn1 | Pks13 thioesterase: -44.18%; Toxoplasma: 6.461%; CoaBC: -1.98%; ClpP1P2: 1.289%; Leishmania in macrophages: 12.33%
- O=C1CC(c2ccc(C(=O)O)cc2)c2c(sc3c2CCCC3)N1 (centres unmarked) | Pks13 thioesterase: -2.138%; Toxoplasma: 6.46%; CoaBC: 33.33% and -5.67%; ClpP1P2: 4.704%; Leishmania in macrophages: -8.136%; MtTrpRS: 1.876%
- CCOC(=O)c1sc2ccsc2c1CN | Pks13 thioesterase: -14.57%; CoaBC: -10.12%; ClpP1P2: -4.633%; MtTrpRS: -3.596%
- C=Cc1ccc(C(=O)N2CCCC(Nc3ccc(OC)cc3)C2)cc1 (centres unmarked) | Pks13 thioesterase: -11.75%; Toxoplasma: -3.924%; CoaBC: 5.757%; ClpP1P2: -11.04%; Leishmania in macrophages: -4.007%; MtTrpRS: -2.554%